For part of these data: At least one read-out could not be matched to a standard name with certainty. For at least one compound, name, drawing or mass did not settle the structure.
Legend:
[1] = tested on: PKC; conditions: literature value, Kuo, J. F. (1994); read-out: Previously Reported IC50; cited from earlier work
[2] = target: PKC purified from rat brain; assay: IQ Platform PKC/PS inhibitor study (fluorescence quench kinase assay); format: biochemical; conditions: for EC50: 500 μU PKC per μl, 60 μM fluorophore-labeled pseudosubstrate peptide, 20 μM ATP, 1 hour room temperature, sigmoidal nonlinear regression, read-out: EC 50 Best Fit

COc1ccc2c(c[n+](C)c3c4cc5c(cc4ccc23)OCO5)c1OC [Chelerythrine Chloride]
IC50 [1]: 700 nM | EC50 [2]: 524 nM | Calculated Hillslope Best Fit ([2]; Hill slope of the dose response inhibition curve, IQ assay): 1.273

Myristoylated Protein Kinase C Inhibitor 20-28, Cell-Permeable: known PKC inhibitor peptide; competitive, peptide binding site (FARKGALRQ; myristoylated; UniProt P17252 20-28, looked up, fragment)
EC50 [2]: 8370 nM

Pseudosubstrate PKC Inhibitor Peptide 19-31: known PKC inhibitor peptide; competitive, peptide binding site (RFARKGALRQKNV; UniProt P17252 19-31, looked up, fragment)
EC50 [2]: 44.7 nM

Pseudosubstrate PKC Inhibitor Peptide 19-36: known PKC inhibitor peptide; competitive, peptide binding site (RFARKGALRQKNVHEVKD; UniProt P17252 19-36, looked up, fragment)
EC50 [2]: 60.9 nM
